# From article PMC9950126
# The chains behind the UniProt entries cited, without tags or fusion partners.
# UniProt Q969H0: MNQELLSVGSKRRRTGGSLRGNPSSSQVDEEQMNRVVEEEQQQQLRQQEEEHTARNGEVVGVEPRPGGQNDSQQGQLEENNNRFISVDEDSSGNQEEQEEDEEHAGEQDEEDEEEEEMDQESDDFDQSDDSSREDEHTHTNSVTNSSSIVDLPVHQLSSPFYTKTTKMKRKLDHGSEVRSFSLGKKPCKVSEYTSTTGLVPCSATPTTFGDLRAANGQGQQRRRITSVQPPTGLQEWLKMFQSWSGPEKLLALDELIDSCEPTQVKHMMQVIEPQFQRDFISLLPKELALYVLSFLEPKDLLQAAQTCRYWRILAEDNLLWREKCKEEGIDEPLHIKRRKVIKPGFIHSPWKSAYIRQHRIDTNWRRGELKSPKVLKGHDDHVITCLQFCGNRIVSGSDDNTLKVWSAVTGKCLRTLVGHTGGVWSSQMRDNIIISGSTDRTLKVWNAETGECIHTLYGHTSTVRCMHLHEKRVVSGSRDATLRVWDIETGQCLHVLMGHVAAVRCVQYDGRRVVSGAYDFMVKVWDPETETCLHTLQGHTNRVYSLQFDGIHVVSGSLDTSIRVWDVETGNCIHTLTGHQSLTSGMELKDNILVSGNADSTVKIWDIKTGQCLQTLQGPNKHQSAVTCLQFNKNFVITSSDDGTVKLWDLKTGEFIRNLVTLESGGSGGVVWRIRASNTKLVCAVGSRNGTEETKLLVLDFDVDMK
# UniProt O60934: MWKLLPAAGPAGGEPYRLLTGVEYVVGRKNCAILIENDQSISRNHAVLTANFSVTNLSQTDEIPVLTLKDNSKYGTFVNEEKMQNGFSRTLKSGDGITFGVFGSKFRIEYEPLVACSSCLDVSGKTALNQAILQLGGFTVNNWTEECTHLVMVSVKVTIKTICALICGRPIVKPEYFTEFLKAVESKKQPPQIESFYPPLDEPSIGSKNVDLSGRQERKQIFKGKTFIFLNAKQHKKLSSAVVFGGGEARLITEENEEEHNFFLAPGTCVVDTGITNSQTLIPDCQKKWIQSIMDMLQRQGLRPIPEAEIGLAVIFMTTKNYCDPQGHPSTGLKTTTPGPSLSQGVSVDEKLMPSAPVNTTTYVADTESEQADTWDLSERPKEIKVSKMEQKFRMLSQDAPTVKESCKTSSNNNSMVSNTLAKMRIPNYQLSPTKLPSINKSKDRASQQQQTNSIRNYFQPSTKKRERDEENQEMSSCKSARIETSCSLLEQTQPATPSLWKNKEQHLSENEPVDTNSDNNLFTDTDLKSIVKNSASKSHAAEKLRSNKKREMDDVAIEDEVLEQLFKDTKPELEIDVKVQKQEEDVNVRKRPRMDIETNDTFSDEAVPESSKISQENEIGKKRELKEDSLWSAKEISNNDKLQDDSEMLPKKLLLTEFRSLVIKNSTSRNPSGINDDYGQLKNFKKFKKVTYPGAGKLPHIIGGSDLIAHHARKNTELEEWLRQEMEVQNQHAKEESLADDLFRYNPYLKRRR
# UniProt Q92878: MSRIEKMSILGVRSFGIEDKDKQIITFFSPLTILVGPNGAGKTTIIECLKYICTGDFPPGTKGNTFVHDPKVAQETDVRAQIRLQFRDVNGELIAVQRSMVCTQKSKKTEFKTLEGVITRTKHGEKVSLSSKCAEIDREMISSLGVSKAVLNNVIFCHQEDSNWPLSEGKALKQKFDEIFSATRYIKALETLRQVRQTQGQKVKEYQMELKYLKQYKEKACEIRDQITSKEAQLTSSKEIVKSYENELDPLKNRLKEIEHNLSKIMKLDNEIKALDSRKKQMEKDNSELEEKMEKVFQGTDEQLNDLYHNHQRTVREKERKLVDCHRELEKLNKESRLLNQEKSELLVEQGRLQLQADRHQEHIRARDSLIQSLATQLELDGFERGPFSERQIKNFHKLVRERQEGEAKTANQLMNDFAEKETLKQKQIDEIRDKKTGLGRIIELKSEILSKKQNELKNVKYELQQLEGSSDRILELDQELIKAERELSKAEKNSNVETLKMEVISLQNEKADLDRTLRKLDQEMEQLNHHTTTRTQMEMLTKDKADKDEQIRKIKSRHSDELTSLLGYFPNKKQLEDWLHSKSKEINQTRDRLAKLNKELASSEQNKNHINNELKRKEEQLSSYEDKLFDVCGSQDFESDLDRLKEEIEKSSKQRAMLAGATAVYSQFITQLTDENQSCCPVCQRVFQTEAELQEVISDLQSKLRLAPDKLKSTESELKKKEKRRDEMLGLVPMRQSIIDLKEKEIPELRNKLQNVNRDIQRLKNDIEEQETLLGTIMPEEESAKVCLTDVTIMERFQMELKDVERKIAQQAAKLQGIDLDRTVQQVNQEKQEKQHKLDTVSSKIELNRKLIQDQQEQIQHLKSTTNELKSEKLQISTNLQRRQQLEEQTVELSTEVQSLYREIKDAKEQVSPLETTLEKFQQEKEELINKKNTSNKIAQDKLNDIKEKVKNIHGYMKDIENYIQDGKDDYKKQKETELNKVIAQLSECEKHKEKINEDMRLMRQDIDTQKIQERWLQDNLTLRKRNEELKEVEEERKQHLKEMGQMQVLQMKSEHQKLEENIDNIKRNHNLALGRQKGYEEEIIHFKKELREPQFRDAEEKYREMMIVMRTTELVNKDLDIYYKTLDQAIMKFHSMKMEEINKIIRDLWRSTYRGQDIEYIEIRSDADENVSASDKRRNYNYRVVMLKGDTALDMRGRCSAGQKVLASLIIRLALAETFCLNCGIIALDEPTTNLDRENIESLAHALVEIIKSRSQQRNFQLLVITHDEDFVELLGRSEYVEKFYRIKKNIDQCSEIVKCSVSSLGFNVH
# UniProt P53350: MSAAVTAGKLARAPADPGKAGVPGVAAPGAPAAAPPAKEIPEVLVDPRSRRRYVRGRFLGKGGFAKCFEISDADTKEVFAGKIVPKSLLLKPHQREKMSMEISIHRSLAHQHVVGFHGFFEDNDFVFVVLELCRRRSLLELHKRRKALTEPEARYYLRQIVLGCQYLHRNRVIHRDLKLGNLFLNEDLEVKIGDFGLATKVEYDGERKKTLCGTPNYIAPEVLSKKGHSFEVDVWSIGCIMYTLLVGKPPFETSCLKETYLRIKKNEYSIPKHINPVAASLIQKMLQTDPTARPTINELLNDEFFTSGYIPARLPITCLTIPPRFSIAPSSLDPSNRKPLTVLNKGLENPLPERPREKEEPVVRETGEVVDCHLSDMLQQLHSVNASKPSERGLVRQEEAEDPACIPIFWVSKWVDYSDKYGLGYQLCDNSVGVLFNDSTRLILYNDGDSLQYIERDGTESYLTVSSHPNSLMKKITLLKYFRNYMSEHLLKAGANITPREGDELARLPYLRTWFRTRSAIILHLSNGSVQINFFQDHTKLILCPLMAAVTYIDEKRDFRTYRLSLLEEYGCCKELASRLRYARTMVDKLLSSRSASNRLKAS
# Results are given in words; binding and its absence hold for the method and conditions named. In cells and extracts the contact can be indirect. Some entries that bind do so weakly or less than the wild type.
# Legend:
# [1] = target: FBXW7 (endogenous, U2OS) (human (endogenous in U2OS)) (UniProt Q969H0); assay: co-IP; nuclear extracts of untreated U2OS cells; endogenous FBXW7 immunoprecipitated with anti-FBXW7, normal rabbit serum as control; immunoblotting
# [2] = target: NBS1 (endogenous, U2OS) (human (endogenous in U2OS)) (UniProt O60934); assay: co-IP; nuclear extracts (NE) of U2OS cells (also U2OS::HA FBXW7 cells) treated with ammonium chloride; immunoprecipitation with anti-NBS1 rabbit monoclonal antibody or normal rabbit serum; immunoblotting
# [3] = target: NBS1 (endogenous, U2OS) (human (endogenous in U2OS)) (UniProt O60934); assay: co-IP; nuclear extracts of U2OS::HA FBXW7ΔF cells (dominant negative FBXW7) treated with ammonium chloride; immunoprecipitation with anti-NBS1; immunoblotting
# [4] = target: T1, MRE11 (endogenous, U2OS) (human (endogenous in U2OS)) (UniProt P49959); assay: co-IP; U2OS cells treated with ammonium chloride for 24 h; NP40 extracts; endogenous MRE11, NBS1 or RAD50 immunoprecipitated, normal mouse or rabbit sera as control; immunoblotting
# T1 sequence: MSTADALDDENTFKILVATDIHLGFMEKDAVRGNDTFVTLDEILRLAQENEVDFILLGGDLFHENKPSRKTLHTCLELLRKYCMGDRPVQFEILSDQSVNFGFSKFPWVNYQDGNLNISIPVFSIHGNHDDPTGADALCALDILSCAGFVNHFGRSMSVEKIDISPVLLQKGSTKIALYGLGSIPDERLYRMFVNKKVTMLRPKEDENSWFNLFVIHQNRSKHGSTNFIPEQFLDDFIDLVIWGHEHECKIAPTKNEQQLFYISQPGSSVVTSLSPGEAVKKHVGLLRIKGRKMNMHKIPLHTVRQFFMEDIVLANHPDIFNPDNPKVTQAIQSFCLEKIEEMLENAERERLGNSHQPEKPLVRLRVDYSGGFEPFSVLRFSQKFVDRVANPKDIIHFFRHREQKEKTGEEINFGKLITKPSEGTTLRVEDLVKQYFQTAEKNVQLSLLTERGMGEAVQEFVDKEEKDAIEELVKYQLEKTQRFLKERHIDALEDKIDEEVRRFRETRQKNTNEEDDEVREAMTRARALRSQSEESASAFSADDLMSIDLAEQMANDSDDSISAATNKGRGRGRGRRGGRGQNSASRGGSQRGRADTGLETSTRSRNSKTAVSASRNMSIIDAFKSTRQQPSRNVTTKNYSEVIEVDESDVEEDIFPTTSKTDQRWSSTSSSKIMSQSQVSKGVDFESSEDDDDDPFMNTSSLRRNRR
# [5] = target: NBS1 (endogenous, U2OS) (human (endogenous in U2OS)) (UniProt O60934); assay: as above
# [6] = target: RAD50 (endogenous, U2OS) (human (endogenous in U2OS)) (UniProt Q92878); assay: as above
substance,measurement,setting,value
"NBS1 (endogenous, U2OS) (from UniProt O60934 1-754)",binding,[1],binds
"PLK1 (endogenous, U2OS) (from UniProt P53350 1-603)",binding,[1],binds
"RAD50 (endogenous, U2OS) (from UniProt Q92878 1-1312)",binding,[1],binds
"p62/SQSTM1 (endogenous, U2OS) (from UniProt Q13501 1-440)",binding,[2],binds
same,binding,[3],binds weakly
same,binding,[4],binds
same,binding,[5],binds
same,binding,[6],binds
